In patent US11292821B2, “Peptides and combination of peptides for use in immunotherapy against lung cancer, including NSCLC, SCLC and other cancers” (Immatics Biotechnologies GmbH, priority 2017, dated 2022):

tested on: tumor tissue samples; assay: Identification and relative quantitation of HLA-presented tumor associated peptides by LC-MS (presentation profile); parameters: species or system human; details: cancer entities on which the tumor-associated peptide was found presented (HLA ligandome LC-MS); abbreviations per table footnote

Row | Substance | Peptide Presentation on cancer entities
1 | 115 (MLLETQDALYV; listed as Homo sapiens) [compound 115] | HNSCC
2 | 116 (VLMEENSKL; listed as Homo sapiens) [compound 116] | GBM
3 | 117 (FLDPNARPLV; listed as Homo sapiens) [compound 117] | NHL, OC
4 | 118 (ALSSVLHSI; listed as Homo sapiens) [compound 118] | AML, BRCA, CRC, GBC, HCC, HNSCC, MEL, NHL, OC, OSCAR, PACA, RCC, UBC
5 | 119 (RTADITVTV; listed as Homo sapiens) [compound 119] | AML, CRC, UBC
6 | 120 (ALLANLPAV; listed as Homo sapiens) [compound 120] | GBC, GC, OC, PACA
7 | 121 (ALVDTLTGI; listed as Homo sapiens) [compound 121] | HNSCC, NHL, UEC
8 | 122 (ALLEMFPEITV; listed as Homo sapiens) [compound 122] | BRCA, OC, PRCA
9 | 123 (LMAFFLAVV; listed as Homo sapiens) [compound 123] | CCC, HCC, NHL, OSCAR, RCC
10 | 124 (SVASVLLYL; listed as Homo sapiens) [compound 124] | AML, BRCA, CLL, HCC, HNSCC, NHL, OC
11 | 125 (VLQPFLPSI; listed as Homo sapiens) [compound 125] | AML, BRCA, CCC, CLL, CRC, HCC, HNSCC, MEL, NHL, OC, RCC
12 | 126 (FLSTVTSV; listed as Homo sapiens) [compound 126] | CCC, GBM, HCC, HNSCC, MEL, NHL, OSCAR, PACA, RCC, UBC, UEC
13 | 127 (GLDGSLVFL; listed as Homo sapiens) [compound 127] | AML, CLL, CRC, GBM, HCC, HNSCC, MEL, NHL, OC, OSCAR, UBC
14 | 128 (FLGTTPTL; listed as Homo sapiens) [compound 128] | AML, CLL, GBM, HNSCC, NHL, OC, UBC, UEC
15 | 129 (VLYDKDAVYV; listed as Homo sapiens) [compound 129] | AML, CLL, CRC, HNSCC, NHL, OC, UBC, UEC
16 | 130 (NLWGGQGLLGV; listed as Homo sapiens) [compound 130] | BRCA, GBC, GBM, GC, HCC, OC, PRCA, UEC
17 | 131 (LLKEFVQRV; listed as Homo sapiens) [compound 131] | BRCA, CRC, HCC, HNSCC, OC, OSCAR
18 | 132 (ALWLVDPLTV; listed as Homo sapiens) [compound 132] | CLL, CRC, GBM, HCC
19 | 133 (MTLPVDAVISV; listed as Homo sapiens) [compound 133] | CLL, CRC, HCC, HNSCC, NHL, PRCA, UEC
20 | 134 (AAEIGDKSWLY; listed as Homo sapiens) [compound 134] | GC, MEL, NHL, UEC
21 | 136 (ATDLVVLDRY; listed as Homo sapiens) [compound 136] | GBM, GC, HCC, MEL, NHL, OSCAR, PRCA, UEC
22 | 137 (ATSKFMEFY; listed as Homo sapiens) [compound 137] | GBM, MEL, OC, PRCA, UEC
23 | 139 (ECDMAFHIY; listed as Homo sapiens) [compound 139] | MEL, OC
24 | 140 (ESDREELNY; listed as Homo sapiens) [compound 140] | GC, PRCA
25 | 141 (ESDVGVVVY; listed as Homo sapiens) [compound 141] | GBM, GC

Row | Substance | Peptide Presentation on cancer entities
26 | 142 (EVAEPSVLFDLY; listed as Homo sapiens) [compound 142] | GC, MEL, NHL, OC, UEC
27 | 145 (FVDKPVAY; listed as Homo sapiens) [compound 145] | GBM, GC, MEL
28 | 146 (GLNTGSALSY; listed as Homo sapiens) [compound 146] | GC, OC
29 | 148 (GTEFTTILY; listed as Homo sapiens) [compound 148] | GC, NHL, OSCAR, PRCA
30 | 149 (GTEFTTVLY; listed as Homo sapiens) [compound 149] | GC, HNSCC, MEL, OSCAR, PRCA
31 | 150 (GTELLSLVY; listed as Homo sapiens) [compound 150] | GC, MEL, NHL, OC, PRCA, UEC
32 | 152 (HTDSLHLLI; listed as Homo sapiens) [compound 152] | GC, MEL, OC
33 | 154 (LLDISQKNLY; listed as Homo sapiens) [compound 154] | GBM, NHL, PRCA
34 | 155 (LLDPNPHMY; listed as Homo sapiens) [compound 155] | PRCA
35 | 156 (LLDSLREQY; listed as Homo sapiens) [compound 156] | GC, NHL, OSCAR
36 | 157 (LMDRPIFY; listed as Homo sapiens) [compound 157] | GBM, GC, MEL, NHL
37 | 159 (LSDTSVIQFY; listed as Homo sapiens) [compound 159] | GBM, GC, HCC, MEL, NHL, PRCA
38 | 161 (LVDDGTHGQY; listed as Homo sapiens) [compound 161] | GBM, GC, MEL
39 | 162 (LVDNSIRELQY; listed as Homo sapiens) [compound 162] | GC, HCC, MEL, NHL, OC, UEC
40 | 163 (NSDSSLTLREFY; listed as Homo sapiens) [compound 163] | HCC, PRCA
41 | 166 (NTQITDIGRY; listed as Homo sapiens) [compound 166] | MEL
42 | 167 (QSDPGTSVLGY; listed as Homo sapiens) [compound 167] | GBM
43 | 169 (RLDTPLYFSY; listed as Homo sapiens) [compound 169] | MEL, OC
44 | 170 (RSDDTAVYY; listed as Homo sapiens) [compound 170] | CLL, GC, HCC, NHL, PRCA, UEC
45 | 172 (RTDSCSSAQAQY; listed as Homo sapiens) [compound 172] | MEL
46 | 173 (RTEFNLNQY; listed as Homo sapiens) [compound 173] | GBC, GC, MEL, UEC
47 | 177 (SSDEVNFLVY; listed as Homo sapiens) [compound 177] | GC, MEL, OC, UEC
48 | 178 (SSDSSTLPKL; listed as Homo sapiens) [compound 178] | GC, OC, PRCA
49 | 179 (STAKSATWTY; listed as Homo sapiens) [compound 179] | PRCA
50 | 180 (STDPWIQMAY; listed as Homo sapiens) [compound 180] | GBM, GC, MEL

Row | Substance | Peptide Presentation on cancer entities
51 | 181 (TADGKTYYY; listed as Homo sapiens) [compound 181] | GBM, HCC, MEL, PRCA
52 | 182 (TDYHVRVY; listed as Homo sapiens) [compound 182] | GBM, PRCA
53 | 184 (TSAHPEDSSFY; listed as Homo sapiens) [compound 184] | GC, NHL, PRCA
54 | 187 (VADLHLYLY; listed as Homo sapiens) [compound 187] | GC, MEL, OC, PRCA, RCC
55 | 190 (VTDGINPLIDRY; listed as Homo sapiens) [compound 190] | MEL
56 | 191 (VTDGSLYEGVAY; listed as Homo sapiens) [compound 191] | GC, MEL, UEC
57 | 193 (VTEFSLNTY; listed as Homo sapiens) [compound 193] | GBC, GC, MEL, OC, OSCAR, UEC
58 | 196 (WMFFVINY; listed as Homo sapiens) [compound 196] | UEC
59 | 198 (YLDPVQRDLY; listed as Homo sapiens) [compound 198] | GBM, GC, HCC, MEL, NHL, OC, UEC
60 | 202 (KLAELEGALQK; listed as Homo sapiens) [compound 202] | MEL, OC, UEC
61 | 204 (AVFDKFIRY; listed as Homo sapiens) [compound 204] | GBM
62 | 207 (RSFNGLLTMY; listed as Homo sapiens) [compound 207] | MEL, OC
63 | 210 (ATSGVPVYK; listed as Homo sapiens) [compound 210] | UEC
64 | 211 (TVNPVAIHK; listed as Homo sapiens) [compound 211] | GBM, NHL, OC, PRCA, UEC
65 | 212 (KAYEQVMHY; listed as Homo sapiens) [compound 212] | UEC
66 | 213 (LNINMTSPMGTK; listed as Homo sapiens) [compound 213] | GBM, GC, MEL, NHL, PACA
67 | 214 (RTMSEAALVRK; listed as Homo sapiens) [compound 214] | GC, NHL, OC, PRCA, UEC
68 | 215 (MMFSGPQILKL; listed as Homo sapiens) [compound 215] | MEL
69 | 216 (KLYAWELAF; listed as Homo sapiens) [compound 216] | AML, GBM, MEL, OC, PRCA
70 | 217 (RILNQILYY; listed as Homo sapiens) [compound 217] | AML, GBM, GC, HCC, MEL, NHL, PRCA, UEC
71 | 218 (KTLVAELLILK; listed as Homo sapiens) [compound 218] | AML, NHL, UEC
72 | 219 (RLRSSLVFK; listed as Homo sapiens) [compound 219] | UEC
73 | 235 (MPLKHYLLL; listed as Homo sapiens) [compound 235] | MEL, NHL, OC, UEC
74 | 237 (RPAATAVISL; listed as Homo sapiens) [compound 237] | GBM, NHL, OC
75 | 244 (FPYVRDFVM; listed as Homo sapiens) [compound 244] | GBC, MEL, NHL, OC, UEC
